Measured values reported in paper PMC7244589.

Amino acid sequences for entries named in this document (tags omitted).
UniProt P31943: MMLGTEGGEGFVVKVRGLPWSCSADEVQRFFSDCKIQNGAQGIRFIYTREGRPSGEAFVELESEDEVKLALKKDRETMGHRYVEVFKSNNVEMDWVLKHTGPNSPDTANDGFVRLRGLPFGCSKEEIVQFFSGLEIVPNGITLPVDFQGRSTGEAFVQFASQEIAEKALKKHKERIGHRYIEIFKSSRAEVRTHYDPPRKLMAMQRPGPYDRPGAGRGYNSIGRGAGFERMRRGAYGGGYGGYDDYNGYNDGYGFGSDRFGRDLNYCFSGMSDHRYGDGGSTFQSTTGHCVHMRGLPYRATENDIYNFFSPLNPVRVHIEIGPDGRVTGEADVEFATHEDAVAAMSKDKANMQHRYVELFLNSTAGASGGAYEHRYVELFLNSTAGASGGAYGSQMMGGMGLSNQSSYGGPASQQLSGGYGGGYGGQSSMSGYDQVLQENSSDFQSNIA
UniProt Q86US8: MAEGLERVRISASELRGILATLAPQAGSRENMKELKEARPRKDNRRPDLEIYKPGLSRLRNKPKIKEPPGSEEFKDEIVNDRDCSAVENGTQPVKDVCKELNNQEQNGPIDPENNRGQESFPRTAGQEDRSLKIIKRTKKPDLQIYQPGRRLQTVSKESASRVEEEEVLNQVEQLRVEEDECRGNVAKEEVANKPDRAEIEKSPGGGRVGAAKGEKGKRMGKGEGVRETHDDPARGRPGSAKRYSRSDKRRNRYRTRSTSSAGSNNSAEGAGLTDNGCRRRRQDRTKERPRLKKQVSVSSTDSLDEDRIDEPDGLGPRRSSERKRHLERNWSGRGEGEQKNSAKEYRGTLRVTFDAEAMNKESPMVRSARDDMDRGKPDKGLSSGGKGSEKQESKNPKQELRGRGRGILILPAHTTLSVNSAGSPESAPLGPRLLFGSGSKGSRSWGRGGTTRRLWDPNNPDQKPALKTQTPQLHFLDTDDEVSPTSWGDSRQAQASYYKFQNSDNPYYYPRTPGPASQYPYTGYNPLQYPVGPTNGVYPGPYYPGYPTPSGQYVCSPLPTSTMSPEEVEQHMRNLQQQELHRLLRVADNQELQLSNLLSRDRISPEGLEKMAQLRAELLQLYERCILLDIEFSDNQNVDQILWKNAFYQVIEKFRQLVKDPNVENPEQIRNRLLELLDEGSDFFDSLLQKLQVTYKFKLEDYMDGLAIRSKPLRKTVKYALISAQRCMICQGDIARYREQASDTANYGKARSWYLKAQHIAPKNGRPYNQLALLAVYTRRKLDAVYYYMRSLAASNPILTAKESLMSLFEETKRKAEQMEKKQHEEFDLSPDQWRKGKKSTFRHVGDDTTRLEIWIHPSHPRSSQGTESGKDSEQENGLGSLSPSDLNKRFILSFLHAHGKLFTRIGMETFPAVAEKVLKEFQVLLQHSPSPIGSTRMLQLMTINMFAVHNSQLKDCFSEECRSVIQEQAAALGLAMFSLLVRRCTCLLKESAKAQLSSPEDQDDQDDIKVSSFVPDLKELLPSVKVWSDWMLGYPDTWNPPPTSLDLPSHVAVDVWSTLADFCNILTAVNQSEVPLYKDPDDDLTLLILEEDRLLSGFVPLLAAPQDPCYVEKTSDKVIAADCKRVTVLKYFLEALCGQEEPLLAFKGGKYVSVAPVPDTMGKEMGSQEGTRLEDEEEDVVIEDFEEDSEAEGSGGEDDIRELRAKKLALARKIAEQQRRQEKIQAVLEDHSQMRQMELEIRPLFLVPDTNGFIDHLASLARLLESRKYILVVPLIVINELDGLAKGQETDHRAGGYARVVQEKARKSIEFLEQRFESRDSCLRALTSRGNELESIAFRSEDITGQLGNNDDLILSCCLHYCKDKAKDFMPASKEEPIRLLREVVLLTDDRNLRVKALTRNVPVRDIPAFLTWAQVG

B1: GAR1 (protein, UniProt Q9NY12 1-217)
chain: MSFRGGGRGGFNRGGGGGGFNRGGSSNHFRGGGGGGGGGNFRGGGRGGFGRGGGRGGFNKGQDQGPPERVVLLGEFLHPCEDDIVCKCTTDENKVPYFNAPVYLENKEQIGKVDEIFGQLRDFYFSVKLSENMKASSFKKLQKFYIDPYKLLPLQRFLPRPPGEKGPPRGGGRGGRGGGRGGGGRGGGRGGGFRGGRGGGGGGFRGGRGGGFRGRGH
B2: NOP10 (protein, UniProt Q9NPE3 1-64)
chain: MFLQYYLNEQGDRVYTLKKFDPMGQQTCSAHPARFSPDDKYSRHRITIKKRFKVLMTQQPRPVL
B3: DKC1 (protein, UniProt O60832 1-514)
chain: MADAEVIILPKKHKKKKERKSLPEEDVAEIQHAEEFLIKPESKVAKLDTSQWPLLLKNFDKLNVRTTHYTPLACGSNPLKREIGDYIRTGFINLDKPSNPSSHEVVAWIRRILRVEKTGHSGTLDPKVTGCLIVCIERATRLVKSQQSAGKEYVGIVRLHNAIEGGTQLSRALETLTGALFQRPPLIAAVKRQLRVRTIYESKMIEYDPERRLGIFWVSCEAGTYIRTLCVHLGLLLGVGGQMQELRRVRSGVMSEKDHMVTMHDVLDAQWLYDNHKDESYLRRVVYPLEKLLTSHKRLVMKDSAVNAICYGAKIMLPGVLRYEDGIEVNQEIVVITTKGEAICMAIALMTTAVISTCDHGIVAKIKRVIMERDTYPRKWGLGPKASQKKLMIKQGLLDKHGKPTDSTPATWKQEYVDYSESAKKEVVAEVVKAPQVVAEAAKTAKRKRESESESDETPPAAPQLIKKEKKKSKKDKKAKAGLESGAEPGDGDSDTTKKKKKKKKAKEVELVSE
B4: NHP2 (protein, UniProt Q9NX24 1-153)
chain: MTKIKADPDGPEAQAEACSGERTYQELLVNQNPIAQPLASRRLTRKLYKCIKKAVKQKQIRRGVKEVQKFVNKGEKGIMVLAGDTLPIEVYCHLPVMCEDRNLPYVYIPSKTDLGAAAGSKRPTCVIMVKPHEEYQEAYDECLEEVQSLPLPL

Legend:
FLAG-hnRNP F = biological target: T1, FLAG-hnRNP F (UniProt P52597); assay: affinity purification with mass spectrometry; FLAG-hnRNP F or H1 ectopically expressed in HeLa cells, immunoprecipitated by FLAG antibody; immunoprecipitates separated by SDS-PAGE, silver-stained, bands analysed by mass spectrometry
T1 sequence: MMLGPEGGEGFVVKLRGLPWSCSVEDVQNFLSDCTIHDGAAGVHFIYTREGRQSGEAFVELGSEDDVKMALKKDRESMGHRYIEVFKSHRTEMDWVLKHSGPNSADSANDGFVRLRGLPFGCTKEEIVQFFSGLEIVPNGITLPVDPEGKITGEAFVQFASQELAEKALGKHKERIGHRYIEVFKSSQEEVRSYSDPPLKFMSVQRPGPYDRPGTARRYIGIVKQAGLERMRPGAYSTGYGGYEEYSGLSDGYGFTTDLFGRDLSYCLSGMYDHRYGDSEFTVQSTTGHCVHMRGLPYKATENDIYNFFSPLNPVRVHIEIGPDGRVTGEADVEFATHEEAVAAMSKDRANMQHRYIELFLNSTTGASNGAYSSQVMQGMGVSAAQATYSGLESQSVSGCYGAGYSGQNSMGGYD

FLAG-hnRNP H1 = FLAG-hnRNP H1 (UniProt P31943); assay: as above

binding (FLAG-hnRNP F)	binding (FLAG-hnRNP H1)	Molecule
binds		EST1A (from UniProt Q86US8 1-1419)
binds		B1
binds	binds	B2
binds	binds	B3
binds	binds	B4

Results are given in words; binding and its absence hold for the method and conditions named. Binding seen in cells or lysates may run through a third protein. A yes stands for co-enrichment or nearness to the bait. Other partners may have been found. For some assays here: Where a sequence is shown, tags or fusion partners need not be part of it.
